Measurements reported in ChEMBL document CHEMBL1151088 (1996).
≈ marks a conversion by molar mass, not a printed value.

Test system: Escherichia coli
Test: In vitro antimicrobial activity against Escherichia coli 182+PMBN.
Type: functional

Which MIC does the source give for `CN[C@H](CC(C)C)C(=O)N[C@H]1C(=O)N[C@@H](CC(N)=O)C(=O)N[C@H]2C(=O)N[C@H]3C(=O)N[C@H](C(=O)N[C@H](C(=O)O)c4cc(O)cc(O)c4-c4cc3ccc4O)[C@H](O)c3ccc(c(Cl)c3)Oc3cc2cc(c3O[C@@H]2O[C@H](CO)[C@@H](O)[C@H](O)[C@H]2O[C@H]2C[C@](C)(N)[C@H](O)[C@H](C)O2)Oc2ccc(cc2Cl)[C@H]1O` [VANCOMYCIN] here?
Its MIC is 0.12 µg/mL (≈ 0.0828 µM).
